From PMC12113857

Key:
Assay in all cases: EMSA
[1] = system: T1, MprA(D51E) (Corynebacterium glutamicum ATCC 13032); conditions: Buffer P: 50 mM Tris-HCl pH 7.5, 50 mM KCl, 10 mM MgCl2, 0.5 mM EDTA, 10% glycerol; 30 min at 20 C; DNA 25-107 nM, protein 0-64-fold molar excess; 6% native PAGE; recombinant protein; residues 1-232; protein details: C-terminal His6; probe letters rebuilt from the primers and the genome
T1 sequence (looked up): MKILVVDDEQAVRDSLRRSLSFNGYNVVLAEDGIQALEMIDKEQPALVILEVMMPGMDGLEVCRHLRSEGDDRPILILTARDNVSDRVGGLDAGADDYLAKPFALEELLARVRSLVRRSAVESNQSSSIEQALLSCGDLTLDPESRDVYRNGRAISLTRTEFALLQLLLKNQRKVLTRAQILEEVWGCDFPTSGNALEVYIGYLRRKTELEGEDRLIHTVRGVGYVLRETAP

[2] = molecular target: MprA, phosphorylated with acetylphosphate (Corynebacterium glutamicum ATCC 13032) (UniProt H7C6D1); conditions: acetylphosphate; Buffer P: 50 mM Tris-HCl pH 7.5, 50 mM KCl, 10 mM MgCl2, 0.5 mM EDTA, 10% glycerol; 30 min at 20 C; DNA 25-107 nM, protein 0-64-fold molar excess; 6% native PAGE; recombinant protein; protein details: C-terminal His6; probe letters rebuilt from the primers and the genome
[3] = system: T2, MprA, unphosphorylated (Corynebacterium glutamicum ATCC 13032); conditions: no acetylphosphate; Buffer P: 50 mM Tris-HCl pH 7.5, 50 mM KCl, 10 mM MgCl2, 0.5 mM EDTA, 10% glycerol; 30 min at 20 C; DNA 25-107 nM, protein 0-64-fold molar excess; 6% native PAGE; recombinant protein; residues 1-232; protein details: C-terminal His6; probe letters rebuilt from the primers and the genome
T2 sequence (looked up): T1 sequence (looked up) with E51D

[4] = system: T3, MprA(D51N) (Corynebacterium glutamicum ATCC 13032); conditions: Buffer P: 50 mM Tris-HCl pH 7.5, 50 mM KCl, 10 mM MgCl2, 0.5 mM EDTA, 10% glycerol; 30 min at 20 C; DNA 25-107 nM, protein 0-64-fold molar excess; 6% native PAGE; recombinant protein; residues 1-232; protein details: C-terminal His6; probe letters rebuilt from the primers and the genome
T3 sequence (looked up): T1 sequence (looked up) with E51N

Does “AGAGGATCCGATCGAGAAGTCGCGCCGGGATCCAGACGATGTGAACAAGGCGCTGGCGGCGGCGGATATGTATGTGTTGATGAATCAGCCGGACACAGCGCTCGCGCACCTTGCAGCACTATTGCCAAAACCGGAGGCTGCCCGGCGGATCGTGGAGTTGCTGAACTTGTTTGATCCGCTGGACCTGGTCGCATTGGAAATCAGGGCGCAGGTGGGGAATGCAATGAGCTAAGAAAACACTTTAAATATTCTAAGAAACAGTTCAAGTTTTGCTGTAGTTTAGATATGACAAGGCAATGACACAAGGAGACAA (double strand) [cg0793 promoter]” bind [1]?
Result: binds

What does the source list for “CGATACCCTTTTCGTCTTCCAGTCCGTGACAGACTTCCTCCCAATTAAGACGTCCACGCGTTGGAACATATTTCACTTATGCTAACACCTCTTAAGCATAAAGAAGCCAGTTACCTCCTCATTTTAAGAGAAGATAACTGGCTCTTGTTAAATTCTTACCTACAAAAGGTTGTAGGCGATGAATTTAAGGTTTAGAACTGCTCTACGTCCACGAGACCGAGCTGTGCTGCCTTAACCAGACGGCGTGGGATGCGAACGGTCTGACCGTCGATCTTGACCTCCTGAAGGGCGACATTGTCG (double strand) [mprA promoter]”?
binding result [2]: binds; binding result [3]: binds more weakly

Does “GATTTGATTATGAACCCTGTGGCTGGGGCGTCACTCTAAGTAGTCTGAACACTTCCTGTGAGCTCTTTAGTGGTTTAATCATCGACATTTTCGAACCCGCTGCGAATGGGTTCCCCTGGCAAATCAATAGTGATTCTCGTTCCGCCATCATCTGATTCACCCACAACGAGTTGGCCACCATGCCGATTCACAACCTGATTCACGATGGCAAGACCTAATCCCGATCCCGGCATGGAACGGGAGCTGACGGCGCGATAGAACCGTTCCAAAACTAATCCTCGTTCTTTTTCAGCAATTCCAGGCCCT (double strand) [htrA promoter]” bind [1]?
Result: binds

Does “GATTTGATTATGAACCCTGTGGCTGGGGCGTCACTCTAAGTAGTCTGAACACTTCCTGTGAGCTCTTTAGTGGTTTAATCATCGACATTTTCGAACCCGCTGCGAATGGGTTCCCCTGGCAAATCAATAGTGATTCTCGTTCCGCCATCATCTGATTCACCCACAACGAGTTGGCCACCATGCCGATTCACAACCTGATTCACGATGGCAAGACCTAATCCCGATCCCGGCATGGAACGGGAGCTGACGGCGCGATAGAACCGTTCCAAAACTAATCCTCGTTCTTTTTCAGCAATTCCAGGCCCT (double strand) [htrA promoter]” bind [4]?
Result: no binding

Does “TAATCGCGATGGCACCAGTGGAGCCGTTGCCATTGGTGGTGGCAGCCAAAGTGGTTAGCAGCTGGCCAGTCATTTCATCCGGGGCGGGGAGACCGAACTCGGCGGCGTCTTCACGAGCGCGCGCTACAGCAGCGTCGGTTTCAGTAGTGGACTCGACATAAGTGCGAAGATACTCGAAGGCGTTACTCACGCGTTATAGTCTAGAGCGAGCAGGCGAGATGTGAAGTACCTACACGCATTAAGTGCAAATGAATTCACAATTGCCAGAAGATGCACAGGATGTAATCTAGATTTCCCAAGTTCAGTGGGGCAAA (double strand) [sigE promoter]” bind [1]?
Result: binds

Does “TAATCGCGATGGCACCAGTGGAGCCGTTGCCATTGGTGGTGGCAGCCAAAGTGGTTAGCAGCTGGCCAGTCATTTCATCCGGGGCGGGGAGACCGAACTCGGCGGCGTCTTCACGAGCGCGCGCTACAGCAGCGTCGGTTTCAGTAGTGGACTCGACATAAGTGCGAAGATACTCGAAGGCGTTACTCACGCGTTATAGTCTAGAGCGAGCAGGCGAGATGTGAAGTACCTACACGCATTAAGTGCAAATGAATTCACAATTGCCAGAAGATGCACAGGATGTAATCTAGATTTCCCAAGTTCAGTGGGGCAAA (double strand) [sigE promoter]” bind [4]?
Result: no binding

Residue numbers refer to the chain shown, from its start. For some of these results: Negatives hold for the conditions tested. For some of these results: Where a protein sequence is shown, tags need not be part of it. For some of these results: The exact form of at least one protein or probe is not confirmed. For some of these results: Weaker means in comparison with the reference protein, sequence or condition of that experiment.
